This passage reports conjugation yield results from paper PMC9127807 (ACS Chemical Biology, 2022).

HELM strings list residues between dots; [ac] is acetyl, [am] amide, other brackets name non-standard units.

The first series in a line: peptide synthesis. To be noted: conjugation step, hydrochloride salt.
As for “PEPTIDE1{[DMTD].[Orn4OH5EDA].T.[Hyp].[hTyr34diOH-NBD].[Orn3OH].[Pro3OH]}$PEPTIDE1,PEPTIDE1,7:R2-2:R3$$$V2.0”, the conjugation yield is listed as 52%. For the substance “PEPTIDE1{[DMTD].[Orn4OH5EDA].T.[Hyp].[hTyr34diOH-TMR].[Orn3OH].[Pro3OH]}$PEPTIDE1,PEPTIDE1,7:R2-2:R3$$$V2.0”, the conjugation yield was 95%.

Still in this series, the particulars now being: conjugation step, hydrochloride salt (probes 1 and 2).
As for “PEPTIDE1{[TerphCO].[Orn4OH5O-NBD].T.[Hyp].[hTyr34diOH].T.[Pro3OH4Me]}$PEPTIDE1,PEPTIDE1,7:R2-2:R3$$$V2.0”, the conjugation yield was 55%. Still for that read-out and setting: the result for “PEPTIDE1{[TerphCO].[Orn4OH5Chol].T.[Hyp].[hTyr34diOH-NBD].T.[Pro3OH4Me]}$PEPTIDE1,PEPTIDE1,7:R2-2:R3$$$V2.0” reads 37%; that for “PEPTIDE1{[TerphCO].[Orn4OH5O-TMR].T.[Hyp].[hTyr34diOH].T.[Pro3OH4Me]}$PEPTIDE1,PEPTIDE1,7:R2-2:R3$$$V2.0”, 73%; that for “PEPTIDE1{[TerphCO].[Orn4OH5Chol].T.[Hyp].[hTyr34diOH-TMR].T.[Pro3OH4Me]}$PEPTIDE1,PEPTIDE1,7:R2-2:R3$$$V2.0”, 68%.
